Experimental data: patent US20050090433A1 (priority 2002, published 2005)
Values joined by “and” are separate entries in the source; they are usually repeats but may differ in a detail not shown here. Identical values can stand only once. At least one structure is not confirmed: it was looked up by name or label, or the drawing left a doubt.

Tested on: N,N′-diacetyl-Lys-D-Ala-D-Ala
Assay: ITC of binding to tri-peptide, with and without HSA

CN[C@H]1C(=O)N[C@@H]2Cc3ccc(cc3)Oc3cc4cc(c3O[C@@H]3O[C@H](C(=O)O)[C@@H](O)[C@H](O)[C@H]3NC(=O)CCCCCCCCC(C)C)Oc3ccc(cc3Cl)[C@@H](O)[C@@H]3NC(=O)[C@H](NC(=O)[C@@H]4NC(=O)[C@@H](NC2=O)c2cc(cc(O)c2Cl)Oc2cc1ccc2O)c1ccc(O)c(c1)-c1c(O[C@H]2O[C@H](CO)[C@@H](O)[C@H](O)[C@@H]2O)cc(O)cc1[C@@H](C(=O)NCCCN(C)C)NC3=O [Dalbavancin]
Kass (10 °C, [HSA] 0 μM): 6.85E+05 L M^−1 and 6.24E+05 L M^−1 and 6.70E+05 L M^−1 and 9.20E+05 L M^−1
Kass (25 °C, [HSA] 0 μM): 3.13E+05 L M^−1 and 3.30E+05 L M^−1 and 3.20E+05 L M^−1 and 2.80E+05 L M^−1 and 3.03E+05 L M^−1 and 3.19E+05 L M^−1 and 3.93E+05 L M^−1
Kass (25 °C, [HSA] 34.2 μM): 3.50E+04 L M^−1
Kass (25 °C, [HSA] 104 μM): 3.49E+04 L M^−1
Kass (25 °C, [HSA] 288 μM): 3.10E+04 L M^−1
Kass (25 °C, [HSA] 430 μM): 2.84E+04 L M^−1
Kass (37 °C, [HSA] 0 μM): 1.30E+05 L M^−1 and 1.10E+05 L M^−1
Kass (37 °C, [HSA] 516 μM): 9568 L M^−1
